# Measured values as given in the supplement of paper PMC12823440, “Inhibitors supercharge kinase turnover through native proteolytic circuits” (Nature, 2025).
# Chains of the proteins cited; added tags and fusions are not shown. Lines headed by an entry give the natural chain unless they say otherwise; changes in a name come on top.
# UniProt P48729: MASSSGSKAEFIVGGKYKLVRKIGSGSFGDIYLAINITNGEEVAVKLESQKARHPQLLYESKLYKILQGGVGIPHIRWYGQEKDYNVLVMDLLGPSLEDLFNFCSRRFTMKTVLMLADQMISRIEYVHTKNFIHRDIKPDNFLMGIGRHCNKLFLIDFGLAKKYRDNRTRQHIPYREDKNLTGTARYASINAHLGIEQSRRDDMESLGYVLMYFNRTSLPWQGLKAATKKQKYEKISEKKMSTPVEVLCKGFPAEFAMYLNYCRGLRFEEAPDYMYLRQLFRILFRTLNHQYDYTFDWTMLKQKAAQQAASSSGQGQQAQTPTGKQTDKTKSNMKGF
# UniProt P48730: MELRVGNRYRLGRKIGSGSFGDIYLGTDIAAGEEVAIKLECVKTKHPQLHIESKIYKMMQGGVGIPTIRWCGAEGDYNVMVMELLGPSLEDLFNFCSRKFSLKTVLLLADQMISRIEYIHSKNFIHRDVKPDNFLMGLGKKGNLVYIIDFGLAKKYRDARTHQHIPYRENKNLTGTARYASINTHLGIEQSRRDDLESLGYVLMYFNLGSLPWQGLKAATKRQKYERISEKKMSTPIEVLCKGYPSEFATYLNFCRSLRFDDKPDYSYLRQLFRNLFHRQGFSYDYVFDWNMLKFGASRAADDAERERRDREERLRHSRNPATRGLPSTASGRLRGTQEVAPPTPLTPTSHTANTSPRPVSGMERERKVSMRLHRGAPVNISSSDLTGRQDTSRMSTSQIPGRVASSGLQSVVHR
# UniProt Q08345: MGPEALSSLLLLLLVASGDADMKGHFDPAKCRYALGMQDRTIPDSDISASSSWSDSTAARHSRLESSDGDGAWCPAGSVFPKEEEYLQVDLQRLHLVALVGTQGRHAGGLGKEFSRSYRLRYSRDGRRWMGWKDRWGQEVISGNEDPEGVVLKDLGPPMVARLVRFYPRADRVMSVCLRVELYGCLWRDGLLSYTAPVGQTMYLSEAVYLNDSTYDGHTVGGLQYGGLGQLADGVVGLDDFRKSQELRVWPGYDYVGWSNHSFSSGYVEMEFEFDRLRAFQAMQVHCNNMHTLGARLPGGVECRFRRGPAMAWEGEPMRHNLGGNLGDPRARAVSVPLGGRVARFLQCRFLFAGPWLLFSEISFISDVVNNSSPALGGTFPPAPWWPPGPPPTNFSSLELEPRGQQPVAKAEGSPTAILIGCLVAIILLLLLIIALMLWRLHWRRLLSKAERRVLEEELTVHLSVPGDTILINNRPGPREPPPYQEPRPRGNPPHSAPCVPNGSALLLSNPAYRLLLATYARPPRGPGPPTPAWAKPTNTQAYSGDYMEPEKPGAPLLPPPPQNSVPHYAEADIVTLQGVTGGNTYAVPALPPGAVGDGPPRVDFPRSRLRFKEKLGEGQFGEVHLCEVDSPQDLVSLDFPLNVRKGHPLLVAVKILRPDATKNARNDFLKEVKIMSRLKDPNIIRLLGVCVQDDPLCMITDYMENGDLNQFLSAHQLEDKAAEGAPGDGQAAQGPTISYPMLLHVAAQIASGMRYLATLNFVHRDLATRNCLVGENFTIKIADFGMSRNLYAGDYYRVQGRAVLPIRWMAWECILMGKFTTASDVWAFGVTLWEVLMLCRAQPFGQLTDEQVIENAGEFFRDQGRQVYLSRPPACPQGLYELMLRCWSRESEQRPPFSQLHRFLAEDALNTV
# UniProt Q9Y463, whole entry, looked up: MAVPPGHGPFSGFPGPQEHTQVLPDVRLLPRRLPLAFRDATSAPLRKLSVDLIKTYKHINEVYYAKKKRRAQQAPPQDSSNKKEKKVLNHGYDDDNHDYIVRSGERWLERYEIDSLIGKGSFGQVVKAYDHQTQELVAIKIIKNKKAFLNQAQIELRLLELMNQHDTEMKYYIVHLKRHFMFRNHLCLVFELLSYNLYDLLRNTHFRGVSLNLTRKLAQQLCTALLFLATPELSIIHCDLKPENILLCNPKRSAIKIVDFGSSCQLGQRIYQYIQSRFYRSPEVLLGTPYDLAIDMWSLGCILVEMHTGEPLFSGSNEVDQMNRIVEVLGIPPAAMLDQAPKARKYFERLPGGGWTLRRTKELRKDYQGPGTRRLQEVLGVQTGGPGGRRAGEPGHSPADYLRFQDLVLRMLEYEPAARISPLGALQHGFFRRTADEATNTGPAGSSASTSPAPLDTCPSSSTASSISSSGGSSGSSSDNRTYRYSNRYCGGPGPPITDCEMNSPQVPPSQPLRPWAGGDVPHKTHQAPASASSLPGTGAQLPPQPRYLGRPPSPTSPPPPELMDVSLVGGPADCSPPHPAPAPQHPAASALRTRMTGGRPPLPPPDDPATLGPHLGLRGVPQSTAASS
# UniProt Q92630: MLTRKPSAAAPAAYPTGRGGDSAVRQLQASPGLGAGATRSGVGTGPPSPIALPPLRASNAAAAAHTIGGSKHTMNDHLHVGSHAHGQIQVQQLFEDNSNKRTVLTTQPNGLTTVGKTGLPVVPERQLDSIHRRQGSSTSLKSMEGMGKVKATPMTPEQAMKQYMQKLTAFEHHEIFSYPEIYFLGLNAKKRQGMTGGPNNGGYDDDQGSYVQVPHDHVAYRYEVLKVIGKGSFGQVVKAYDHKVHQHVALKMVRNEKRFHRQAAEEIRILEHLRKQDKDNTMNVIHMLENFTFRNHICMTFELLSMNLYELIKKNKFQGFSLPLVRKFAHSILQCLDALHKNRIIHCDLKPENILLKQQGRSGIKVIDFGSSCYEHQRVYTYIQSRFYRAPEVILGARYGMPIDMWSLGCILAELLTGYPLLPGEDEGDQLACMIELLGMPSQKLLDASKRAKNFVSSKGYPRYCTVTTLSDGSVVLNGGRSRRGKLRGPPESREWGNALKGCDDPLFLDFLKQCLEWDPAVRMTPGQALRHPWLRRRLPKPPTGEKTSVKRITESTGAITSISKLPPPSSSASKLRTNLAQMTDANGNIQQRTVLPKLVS
# Structures can show the parent of a compound that is named as a salt. The list shows a part of the results. The calls rarely recur for the same compound in another form.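 In K562 cells expressing nanoluciferase-fused kinases, luminescence was recorded at 4 h intervals between 2 and 18 h, normalized as percent of control with DMSO at 100% and a positive control at 0%. A significant (2 sigma) signal drop marks a time point as decreased. The authors' rule for a hit is not shown and takes in more than the number of time points.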
# Columns and labels:
# Assay in all cases: number of time points (of 5) at which kinase-Nluc abundance scored as decreased, DMSO-normalised (count); higher = more persistent destabilization
# Conditions in all cases: K562; 2-18 h
# [1] = target: CSNK1A1 (UniProt P48729)
# [2] = target: CSNK1D (UniProt P48730)
# [3] = target: DDR1 (UniProt Q08345)
# [4] = target: DYRK1B (UniProt Q9Y463)
# [5] = target: DYRK2 (UniProt Q92630)
# [6] = target: EGFR (UniProt P00533)
# [7] = target: EGFR_G719S (UniProt P00533)
# [8] = target: EGFR_G719S_T790M (UniProt P00533)
# [9] = target: EGFR_L718V (UniProt P00533)
# [10] = target: EGFR_L858R (UniProt P00533)
SMILES,number of time points [1],number of time points [2],number of time points [3],number of time points [4],number of time points [5],number of time points [6],number of time points [7],number of time points [8],number of time points [9],number of time points [10]
Nc1cc(C(F)(F)F)c(-c2nc(N3CCOCC3)nc(N3CCOCC3)n2)cn1 [Bimiralisib] (10 µM),0,0,3,0,4,0,0,1,0,0
CC(=O)Nc1nc2ccc(-c3cnc(C)c(NC(=O)OC4CCCCC4)c3)cc2s1 (10 µM),0,0,1,0,0,0,0,0,0,0
COc1cc(N2CCC(N(C)C)CC2)ccc1Nc1ncc(Cl)c(Nc2ccccc2P(C)(C)=O)n1 (2.5 µM),0,0,3,0,0,0,0,0,0,0
CCCCOc1ccc(CC/C=C2\SC(=O)N(CCN)C2=O)cc1 [K145 (hydrochloride)] (2.5 µM),0,0,0,0,0,0,0,0,0,0
COc1nc(-c2ccnc(NC(=O)C3CC3)c2)sc1C(N)=O [GSK-3β inhibitor 2] (10 µM),0,0,0,0,0,0,1,0,0,0
CCn1nc(C2CCN(C(=O)CCO)CC2)nc1-c1cnc(N)c(-c2nnc(C(C)(C)C)o2)n1 (10 µM),0,0,0,0,0,0,0,0,0,0
COc1c(O)cc2oc3cc(O)c(CC=C(C)C)c(O)c3c(=O)c2c1CCC(C)(C)O [Garcinone D] (2.5 µM),0,0,0,0,0,0,0,0,0,0
CC(C)c1ccc(CC(=O)N2CCN(c3ccc(C#N)nn3)CC2)cc1 (10 µM),0,0,0,0,0,0,0,0,0,0
CCCNC(=O)c1cn2ncnc(Nc3cc(C(=O)NC4CC4)ccc3C)c2c1C (10 µM),0,0,0,0,0,0,0,0,0,0
O=C(O)CCc1ccc(NCc2cccc(Oc3ccccc3)c2)cc1 (10 µM),0,0,0,0,0,0,0,0,0,0
O=C(Nc1ccc(Cl)c(Cl)c1)Nc1ccc2nnsc2c1 (10 µM),0,0,0,0,0,0,0,0,0,0
CC(C)c1cnn2c(NCc3ccccc3-n3cccn3)nc(OC3CCCNC3)nc12 (stereo not given) (2.5 µM),0,0,1,0,0,2,0,0,1,0

# Whole records, looked up by structure. Order of values: number of time points [1]	number of time points [2]	number of time points [3]	number of time points [4]	number of time points [5]	number of time points [6]	number of time points [7]	number of time points [8]	number of time points [9]	number of time points [10]
# COc1c(O)cc2oc3cc(O)c(CC=C(C)C)c(O)c3c(=O)c2c1CCC(C)(C)O [Garcinone D] (2.5 µM) reads 0	0	0	0	0	0	0	0	0	0
# CCCCOc1ccc(CC/C=C2\SC(=O)N(CCN)C2=O)cc1 [K145 (hydrochloride)] (2.5 µM) reads 0	0	0	0	0	0	0	0	0	0
